Experimental findings from article PMC12528419 are described below.

Amino acid sequences for entries named in this document (tags omitted).
UniProt O15085: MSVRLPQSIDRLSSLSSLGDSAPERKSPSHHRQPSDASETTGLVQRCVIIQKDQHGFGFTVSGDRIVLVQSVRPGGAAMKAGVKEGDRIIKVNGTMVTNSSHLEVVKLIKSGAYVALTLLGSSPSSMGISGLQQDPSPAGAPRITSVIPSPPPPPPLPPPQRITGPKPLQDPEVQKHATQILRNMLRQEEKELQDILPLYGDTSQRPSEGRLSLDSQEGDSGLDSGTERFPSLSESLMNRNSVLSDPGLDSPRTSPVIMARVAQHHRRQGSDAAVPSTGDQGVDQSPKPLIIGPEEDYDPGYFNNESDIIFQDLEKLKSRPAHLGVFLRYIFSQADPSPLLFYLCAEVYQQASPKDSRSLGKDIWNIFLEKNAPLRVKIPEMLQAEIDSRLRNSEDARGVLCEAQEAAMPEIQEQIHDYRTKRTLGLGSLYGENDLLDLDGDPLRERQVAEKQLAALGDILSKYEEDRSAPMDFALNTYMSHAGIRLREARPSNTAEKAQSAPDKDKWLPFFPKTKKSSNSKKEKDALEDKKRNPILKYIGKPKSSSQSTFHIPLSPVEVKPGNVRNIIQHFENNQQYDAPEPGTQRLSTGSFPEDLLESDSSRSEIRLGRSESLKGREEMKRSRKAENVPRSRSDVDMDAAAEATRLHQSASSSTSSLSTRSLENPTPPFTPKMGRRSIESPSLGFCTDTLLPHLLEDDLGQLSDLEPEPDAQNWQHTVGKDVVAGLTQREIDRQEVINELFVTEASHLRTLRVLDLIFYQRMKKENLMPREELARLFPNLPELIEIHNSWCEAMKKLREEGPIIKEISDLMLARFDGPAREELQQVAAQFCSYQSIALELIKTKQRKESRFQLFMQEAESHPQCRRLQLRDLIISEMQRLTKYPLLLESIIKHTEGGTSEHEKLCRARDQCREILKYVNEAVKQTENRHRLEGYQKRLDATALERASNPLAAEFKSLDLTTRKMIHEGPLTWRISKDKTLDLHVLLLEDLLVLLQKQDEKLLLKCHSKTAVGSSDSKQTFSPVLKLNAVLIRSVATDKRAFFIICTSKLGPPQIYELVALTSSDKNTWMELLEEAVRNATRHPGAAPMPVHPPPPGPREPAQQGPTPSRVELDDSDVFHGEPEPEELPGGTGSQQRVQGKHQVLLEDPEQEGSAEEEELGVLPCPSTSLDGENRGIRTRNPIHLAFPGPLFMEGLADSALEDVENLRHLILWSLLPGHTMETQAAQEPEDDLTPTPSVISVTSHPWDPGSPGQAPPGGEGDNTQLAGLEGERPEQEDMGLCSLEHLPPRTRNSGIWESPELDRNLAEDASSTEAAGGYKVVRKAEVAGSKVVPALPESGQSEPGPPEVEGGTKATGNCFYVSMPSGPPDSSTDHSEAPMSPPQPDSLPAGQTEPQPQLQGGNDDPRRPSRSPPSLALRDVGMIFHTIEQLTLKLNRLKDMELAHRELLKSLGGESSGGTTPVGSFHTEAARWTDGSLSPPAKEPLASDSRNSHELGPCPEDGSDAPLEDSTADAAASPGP

Results are given in words; binding and its absence hold for the method and conditions named. In cells and extracts the contact can be indirect. Some entries that bind do so weakly or less than the wild type.

The target in the assay is endogenous Nesprin-2 (human (endogenous in the paper's human cell lines)) (UniProt Q8WXH0). Nature of the assay: co-IP; 2 mg cell lysate incubated with 2 μg anti-Nesprin-2 Ab2 for 16 h, then 10 μl protein A/G PLUS-agarose beads for 1 h at 4 °C; endogenous proteins.

As to “endogenous PDZ RhoGEF (from UniProt O15085 1-1522)”, the binding result is listed as “binds”.
